Data from publication PMC10123104.
No constants are given. Whether binding was seen depends on the method and setting.

Protein sequences, listed by entry. Tags and fused reporters are not part of them.
UniProt P42641: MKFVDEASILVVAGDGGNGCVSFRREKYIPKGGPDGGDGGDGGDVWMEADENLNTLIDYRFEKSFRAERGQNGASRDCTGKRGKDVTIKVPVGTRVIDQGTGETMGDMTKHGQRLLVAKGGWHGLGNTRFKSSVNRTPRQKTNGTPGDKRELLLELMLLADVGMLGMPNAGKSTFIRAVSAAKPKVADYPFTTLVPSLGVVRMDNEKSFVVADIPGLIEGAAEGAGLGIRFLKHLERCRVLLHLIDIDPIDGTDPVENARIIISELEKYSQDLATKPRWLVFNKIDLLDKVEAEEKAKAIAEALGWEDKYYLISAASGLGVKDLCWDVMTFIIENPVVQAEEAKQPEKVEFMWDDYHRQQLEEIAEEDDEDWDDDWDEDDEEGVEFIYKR

Target: N-terminally His6-tagged ObgE protein (Escherichia coli Obg) (E. coli) (UniProt P42641)
Assay: SEC-MALS; Superdex 200 5/150 GL increase; ObgE and YbiB alone at 1.5 mg/ml; YbiB and ObgE mixed 1:3 (20 and 60 μM); 20 mM HEPES pH 7.5, 150 mM NaCl, 5 mM MgCl2, 5% glycerol, 2 mM DTT; both purified

binding: no binding (tested: 1.5 mg/ml)
Substance: N-terminally His6-tagged ObgE protein (Escherichia coli Obg) (from UniProt P42641 1-390) (enzyme)
